Results from patent US20190209565A1.
These are yes or no findings as the source states them, for the method shown. For part of these data: Binding seen in cells or lysates may run through a third protein. Some results given as binding are weak or reduced against the parent protein; the word gives no strength.

Protein sequences, listed by entry. Tags and fused reporters are not part of them.
UniProt Q14457: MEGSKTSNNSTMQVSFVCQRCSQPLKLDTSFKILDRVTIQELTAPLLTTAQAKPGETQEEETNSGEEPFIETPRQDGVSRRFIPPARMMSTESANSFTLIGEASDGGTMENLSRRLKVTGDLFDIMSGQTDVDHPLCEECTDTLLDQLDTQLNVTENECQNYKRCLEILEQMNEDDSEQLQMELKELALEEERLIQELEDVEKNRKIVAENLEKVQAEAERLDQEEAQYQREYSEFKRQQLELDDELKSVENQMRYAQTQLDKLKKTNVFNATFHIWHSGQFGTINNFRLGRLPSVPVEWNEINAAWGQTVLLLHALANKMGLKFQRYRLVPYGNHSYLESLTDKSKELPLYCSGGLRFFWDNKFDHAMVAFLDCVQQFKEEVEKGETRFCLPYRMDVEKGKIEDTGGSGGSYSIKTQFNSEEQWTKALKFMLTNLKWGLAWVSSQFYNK

Assays:
FLAG-Beclin-1 (human) = FLAG-Beclin-1 (human) (UniProt Q14457); test: anti-GFP immunoprecipitation from HEK293 cells expressing FLAG-Beclin-1 and YFP-tagged ErbB2, Western blot (FIG. 4E)
[1] = target: Beclin-1 (endogenous in HEK293 cells) (human) (UniProt Q14457); test: co-immunoprecipitation, Western blot (FIG. 4 legend)
[2] = target: Beclin-1 (endogenous in HEK293 cells) (human) (UniProt Q14457); test: co-immunoprecipitation with anti-Beclin-1 from HEK293 lysates, Western blot (FIG. 4B)

Row | Substance | binding (FLAG-Beclin-1 (human)) | binding [1] | binding [2]
1 | YFP-tagged ErbB2 (from UniProt P04626 31-1255) (receptor) | binds |  | 
2 | ErbB2 (endogenous in HEK293 cells) (from UniProt P04626 23-1255) (receptor) |  | binds | binds
